Patent US20260207600A1, “METHODS OF TREATMENT WITH MYOSIN MODULATOR” (MYOKARDIA, INC., priority 2019, published 2026)
For at least one compound, name, drawing or mass did not settle the structure.

System: Yucatan mini-pigs with a heterozygous MYH7 R403Q mutation
Test: Chronic MYK-581 in mini-pig genetic model of non-obstructed HCM (cMR imaging, invasive hemodynamics, dobutamine challenge)
Conditions: minipig, in vivo
Description: The mini-pigs were treated for at least 12 weeks and were evaluated as shown in Schematic 1 below. […] After ~14 weeks of treatment, all pigs underwent in vivo cMR imaging for the assessment of LV function and geometry, as well as of myocardial composition via of Late Gadolinium Enhancement (LGE) and T1 mapping techniques including extracellular volume (ECV) assessments. In addition, a subset of animals (MYK: n=6, CTRL: n=5) also underwent terminal invasive hemodynamics assessments, including cardiac output (CO, via thermodilution), load-independent systolic/diastolic function (via LV pressure-volume relationships), and β-adrenergic (β-AR) cardiac reserve (via dobutamine at 5 μg/kg/min IV).
The mini-pig model can be obtained following the method disclosed in a presentation entitled “A Minipig Genetic Model of Hypertrophic Cardiomyopathy Uncovers the Pathophysiological Mechanisms of Disease Evolution”, by E. Green et al., at University of Iowa, Carver College of Medicine.

SMILES: CC(C)n1c(=O)cc(N[C@@H](C)c2cccc(F)c2)[nH]c1=O [MYK-581, (S)-6-((1-(3-fluorophenyl)ethyl)amino)-3-isopropylpyrimidine-2,4 (1H,3H)-dione]
- CO: preserving CO
